According to the supplement of paper PMC4749390:
Values joined by “and” are separate entries in the source; they are usually repeats but may differ in a detail not shown here. Equal values may be shown once. Where a name gives a salt, the structure may show the parent alone. The list shows a part of the results. This data set is noisy: repeats of one test often differ as much as different tests do.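 JEG3 cells stably express tetracycline-inducible wild-type human LRH-1, a highly sumoylated nuclear receptor. SUMO-sensitive transcripts APOC3 and MUC1, increased by SUMO-deficient LRH-1 or UBC9 knockdown, were quantified by RT-qPCR relative to TBP and DMSO controls. Primary hits had robust Z-scores above +2 or below -2, before toxicity and TBP filtering.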

The molecules below were run on JEG3 expressing hLRH-1 (assay: APOC3 transcript change (ddCt vs TBP and DMSO), Z-score over library; higher = higher APOC3 expression). Settings: 10 µM; time (hr): 24.

SMILES	APOC3 transcript change (Z-score)
CC(C)(C(=O)c1cccnc1)c1cccnc1 [metyrapone]	0.126
O=c1[nH]c(=O)c2ccccc2o1 [carsalam]	1.4
CCCCC/N=C(\N)N/N=C/c1c[nH]c2ccc(OC)cc12 [tegaserod maleate]	0.417
CN1C(=O)CC(c2ccccc2)C1=O (centres undefined) [phensuccimide]	0.298
CCN(CCO)CCCC(C)Nc1ccnc2cc(Cl)ccc12 (centres undefined) [hydroxychloroquine sulfate]	-0.49
NS(=O)(=O)c1cc2c(cc1C(F)(F)F)NC(Cc1ccccc1)NS2(=O)=O (centres undefined) [bendrofumethiazide]	1.82
C[C@]12CCC3c4ccc(O)cc4CCC3C1C[C@@H](O)[C@@H]2O (some centres undefined) [estriol]	-0.498
NCCCC(N)CC(=O)NCC1NC(=O)C(CO)NC(=O)C(N)CNC(=O)C(C2CCN=C(N)N2)NC(=O)/C(=C\NC(N)=O)NC1=O (centres undefined) [capreomycin sulfate]	0.267
CC(=O)Nc1nnc(S(N)(=O)=O)s1 [Acetazolamide]	-0.632
CC(CCc1ccccc1)NCC(O)c1ccc(O)c(C(N)=O)c1 (centres undefined) [labetalol hydrochloride]	1.35
C/C=C/c1ccc(OC)cc1 [anethole]	-0.716
COc1ccc(C(=O)NCc2ccc(OCCN(C)C)cc2)cc1OC [itopride  hydrochloride]	0.0769
CCOC(=O)NNc1nncc2ccccc12 [todralazine hydrochloride]	0.65
CO/N=C1\C[C@]2(C[C@@H]3C[C@@H](C/C=C(\C)C[C@@H](C)/C=C/C=C4\CO[C@@H]5[C@H](O)C(C)=C[C@@H](C(=O)O3)[C@]45O)O2)O[C@H](/C(C)=C/C(C)C)[C@H]1C [moxidectin]	0.114
NC(Cc1c[nH]c2ccccc12)C(=O)O (centres undefined) [tryptophan]	-0.0473
CCCc1nc(C(C)(C)O)c(C(=O)O)n1Cc1ccc(-c2ccccc2-c2nn[nH]n2)cc1 [olmesartan]	-0.178
CCCCC1=NC2(CCCC2)C(=O)N1Cc1ccc(-c2ccccc2-c2nn[nH]n2)cc1 [irbesartan]	-0.813
N#Cc1ccc2[nH]cc(CCCCN3CCN(c4ccc5oc(C(N)=O)cc5c4)CC3)c2c1 [vilazodone hydrochloride]	-0.907
C[C@H](CCC(=O)O)[C@H]1CCC2C3C(CC[C@@]21C)[C@@]1(C)CC[C@@H](O)C[C@H]1C[C@H]3O (some centres undefined) [chenodiol]	0.0163
CN1CCC(=C2c3ccccc3CCc3cccnc32)CC1 [azatadine maleate]	0.183
OC[C@H]1O[C@H](O[C@H]2[C@H](O)[C@@H](O)[C@H](O)O[C@@H]2CO)[C@H](O)[C@@H](O)[C@@H]1O [d-(+)-maltose]	-0.231
Nc1ccn([C@@H]2O[C@H](CO)[C@@H](O)[C@@H]2O)c(=O)n1 [cytarabine]	1.89
CCCCCCCC/C=C\CCCCCCCC(=O)O [ethanolamine oleate]	0.424
CN(C)CCCN1c2ccccc2CCc2ccccc21 [Imipramine hydrochloride]	-1.14
Nc1nc(S)c2[nH]cnc2n1 [thioguanine]	-0.85
O=C(O)[C@H]1/C(=C/CO)O[C@@H]2CC(=O)N21 [clavulanate lithium]	0.497
C[C@]12C=CC(=O)C=C1CCC1C2C(=O)C[C@@]2(C)C1CC[C@]2(O)C(=O)CO (some centres undefined) [prednisone]	-0.552

Copied from the list.
For APOC3 transcript change (Z-score), `CC(=O)Nc1nnc(S(N)(=O)=O)s1` [Acetazolamide] is entered as -0.632
For APOC3 transcript change (Z-score), `CC(C)(C(=O)c1cccnc1)c1cccnc1` [metyrapone] is entered as 0.126
For APOC3 transcript change (Z-score), `OC[C@H]1O[C@H](O[C@H]2[C@H](O)[C@@H](O)[C@H](O)O[C@@H]2CO)[C@H](O)[C@@H](O)[C@@H]1O` [d-(+)-maltose] is entered as -0.231

Additional structures.

SMILES	APOC3 transcript change (Z-score)
CC(c1cc2ccccc2s1)N(O)C(N)=O (centres undefined) [zileuton]	-0.305
CCN(CC)CCCC(C)Nc1c2ccc(Cl)cc2nc2ccc(OC)cc12 (centres undefined) [Quinacrine dihydrochloride]	6.71
CC(=O)OCC(=O)[C@@]1(O)[C@@H](C)CC2C3CCC4=CC(=O)C=C[C@]4(C)[C@@]3(F)[C@@H](O)C[C@@]21C (some centres undefined) [betamethasone acetate]	-0.398
O=C1CCc2cc(OCCCCc3nnnn3C3CCCCC3)ccc2N1 [cilostazol]	0.00411
CCCCOCCOCCOCc1cc2c(cc1CCC)OCO2 [piperonyl butoxide]	-0.631
O=C1OC(CN2CCOCC2)CN1/N=C/c1ccc([N+](=O)[O-])o1 (centres undefined) [furaltadone]	-0.0298
C=CC1=C(C(=O)O)N2C(=O)[C@@H](NC(=O)/C(=N\O)c3csc(N)n3)[C@H]2SC1 [cefdinir]	-0.18
CCCCCCCCCCCCCCCC(=O)NCCO [palmidrol]	-0.142
CO[C@H]1O[C@@H]2O[C@@]3(C)CC[C@H]4[C@H](C)CC[C@@H]([C@H]1C)[C@@]24OO3 [artemether]	0.652
C[C@@H](c1ncncc1F)[C@](O)(Cn1cncn1)c1ccc(F)cc1F [voriconazole]	-0.515
NC12CC3CC(CC(C3)C1)C2 [Amantadine hydrochloride]	0.0418
CCCCC1C(=O)N(c2ccccc2)N(c2ccc(O)cc2)C1=O (centres undefined) [oxyphenbutazone]	1.05
O=C(C1CCCCC1)N1CC(=O)N2CCc3ccccc3C2C1 (centres undefined) [praziquantel]	0.0277
C[C@H](CCC(=O)O)[C@H]1CCC2C3C(=O)CC4CC(=O)CC[C@]4(C)C3CC(=O)[C@@]21C (some centres undefined) [sodium dehydrocholate]	-0.0839
Cc1cc(-c2ccc(N=Nc3ccc4c(S(=O)(=O)O)cc(S(=O)(=O)O)c(N)c4c3O)c(C)c2)ccc1N=Nc1ccc2c(S(=O)(=O)O)cc(S(=O)(=O)O)c(N)c2c1O [evans blue]	0.979
O=C1CC2(CCCC2)CC(=O)N1CCCCN1CCN(c2ncccn2)CC1 [Buspirone hydrochloride]	0.458
CC(=O)N(O)CCCCCNC(=O)CCC(=O)N(O)CCCCCNC(=O)CCC(=O)N(O)CCCCCN [deferoxamine mesylate]	0.819
O=C(CCCN1CCN(c2ccccn2)CC1)c1ccc(F)cc1 [azaperone]	0.0291
CN1CCC(=C2c3ccccc3Sc3ccccc32)CC1 [pimethixene maleate]	1.88
C[C@]12CC[C@@H]3c4ccc(O)cc4CC[C@H]3[C@@H]1CC[C@@H]2OC(=O)CCC1CCCC1 [estradiol cypionate]	-0.288
CC(=O)Nc1ccc(OC(C)=O)cc1 [diacetamate]	0.179
CCC(Cc1c(I)cc(I)c(N)c1I)C(=O)O (centres undefined) [iopanic acid]	1.15
CCC(NC(C)C)C(O)c1ccc(O)c(O)c1 (centres undefined) [isoetharine mesylate]	0.166
Cn1c([N+](=O)[O-])cc[n+]1C [dimetridazole]	0.484
CCN(CC)C(=O)/C(C#N)=C/c1cc(O)c(O)c([N+](=O)[O-])c1 [entacapone]	-0.498
CCOC(=O)C(C)(C)Oc1ccc(Cl)cc1 [Clofibrate]	-0.0616
NCc1ccc(S(N)(=O)=O)cc1 [mafenide hydrochloride]	0.312

Looked up one by one from above (4):
SMILES	APOC3 transcript change (Z-score)
CC(CCc1ccccc1)NCC(O)c1ccc(O)c(C(N)=O)c1 (centres undefined) [labetalol hydrochloride]	1.35
C/C=C/c1ccc(OC)cc1 [anethole]	-0.716
CCCCCCCCCCCCCCCC(=O)NCCO [palmidrol]	-0.142
OC[C@H]1O[C@H](O[C@H]2[C@H](O)[C@@H](O)[C@H](O)O[C@@H]2CO)[C@H](O)[C@@H](O)[C@@H]1O [d-(+)-maltose]	-0.231

Additional structures.

SMILES	APOC3 transcript change (Z-score)
CN(C)CCOC(c1ccc(Cl)cc1)c1ccccn1 (centres undefined) [carbinoxamine maleate]	1.37
CC(C)[C@H](N)C(=O)OCC(CO)OCn1cnc2c(O)nc(N)nc21 (some centres undefined) [valganciclovir hydrochloride]	-0.255
CCCN(CCC)C(=O)C(CCC(=O)O)NC(=O)c1ccccc1 (centres undefined) [Proglumide]	1.8
C[C@H](COc1ccccc1)N[C@H](C)[C@H](O)c1ccc(O)cc1 [isoxsuprine hydrochloride]	-0.0531
CS(=O)(=O)OCCCCOS(C)(=O)=O [busulfan]	0.0876
CC(C)Oc1ccc2c(=O)cc(-c3ccccc3)oc2c1 [ipriflavone]	-0.139
COc1cc2nc(N3CCN(C(=O)C4CCCO4)CC3)nc(N)c2cc1OC (centres undefined) [terazosin hydrochloride]	-0.221
COc1cc(OC)c(C(=O)CCCN2CCCC2)c(OC)c1 [buflomedil hydrochloride]	-0.705
CCC(=O)c1ccc(O)cc1 [paroxypropione]	-0.746
CC[C@H]1OC(=O)[C@H](C)[C@@H](O[C@H]2C[C@@](C)(OC)[C@@H](O)[C@H](C)O2)[C@H](C)[C@@H](O[C@@H]2O[C@H](C)C[C@H](N(C)C)[C@H]2O)[C@](C)(O)C[C@@H](C)C(=O)[C@H](C)[C@@H](O)[C@]1(C)O [erythromycin]	-0.298 and -0.55
Oc1ccc(Cl)c2cccnc12 [cloxyquin]	0.561
Cn1ccnc1S [methimazole]	0.405
COc1ccc(C2CNC(=O)C2)cc1OC1CCCC1 (centres undefined) [Rolipram]	1.13
CCC1(c2ccccc2)C(=O)NCNC1=O [Primidone]	0.865
CC1CC(OC(=O)c2ccccc2O)CC(C)(C)C1 (centres undefined) [homosalate]	0.18
CC(C)(Oc1ccc(Cl)cc1)C(=O)O [clofibric acid]	0.437
CC(=O)NO [acetohydroxamic acid]	-0.177
O=C(O)c1cc(-c2ccc(F)cc2F)ccc1O [diflunisal]	-0.185
CC(=O)CC(c1ccc([N+](=O)[O-])cc1)c1c(O)oc2ccccc2c1=O (centres undefined) [acenocoumarol]	-0.519
Cn1cnc([N+](=O)[O-])c1Sc1[nH]cnc2ncnc1-2 [Azathioprine]	0.863
CC(C)(S)[C@@H](N)C(=O)O [penicillamine]	-0.77
O=C1O[C@H](CO)[C@@H](O)[C@H](O)[C@H]1O [gluconolactone]	0.548
COc1ccc2cc3[n+](cc2c1OC)CCc1cc2c(cc1-3)OCO2 [berberine chloride]	-0.919
CC[C@H]1OC(=O)[C@H](C)[C@@H](O[C@H]2C[C@@](C)(OC)[C@@H](O)[C@H](C)O2)[C@H](C)[C@@H](O[C@@H]2O[C@H](C)C[C@H](N(C)C)[C@H]2O)[C@](C)(O)C[C@@H](C)[C@@H]2N[C@@H](COCCOC)O[C@H]([C@H]2C)[C@]1(C)O [dirithromycin]	0.294
O=C1CN2Cc3c(ccc(Cl)c3Cl)N=C2N1 [anagrelide hydrochloride]	0.216
